Measurements reported in patent US20240352121A1, “LAIR-1 AGONISTIC ANTIBODIES AND METHODS OF USE THEREOF” (NEXTCURE, INC., priority 2023, published 2024).
Results are given in words; binding and its absence hold for the method and conditions named. Some entries that bind do so weakly or less than the wild type.

Protein sequences, listed by entry. Tags and fused reporters are not part of them. Lines headed by an entry give the natural chain unless they say otherwise; changes in a name come on top. Chains listed by the source or under a name are the forms on record and can include a tag or linker.
human LAIR-1 fused to the zeta chain of CD3, on UT-140 reporter cells (P20963, form named): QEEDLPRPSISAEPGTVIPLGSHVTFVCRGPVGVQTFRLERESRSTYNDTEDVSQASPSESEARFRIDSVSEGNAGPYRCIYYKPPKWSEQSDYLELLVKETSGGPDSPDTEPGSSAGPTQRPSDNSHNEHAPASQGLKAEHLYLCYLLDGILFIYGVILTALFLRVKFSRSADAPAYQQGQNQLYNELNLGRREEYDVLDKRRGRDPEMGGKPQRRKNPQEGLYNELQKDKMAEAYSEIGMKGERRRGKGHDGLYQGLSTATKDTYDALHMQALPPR

Biological target: human LAIR-1 fused to the zeta chain of CD3, on UT-140 reporter cells (human) (UniProt P20963)
Test: binding on UT140 reporter cells (FIG. 24B)

B1: h11B3 LAIR-1 mAb, Anti-LAIR-1 Variant 6 (h11B3 VL-2 / h11B3 VH-3) (antibody, V domains shown)
VH: EVQLVESGGGLVQPGGSLKLSCAASGFTFNTNAMYWVRQAPGKGLEWVGRIRSKSSNYATYYAASVKGRFTISRDDSKNTLYLQMNSLKTEDTAVYYCVRGGSGFFAYWGQGTLVTVSS
VL: DIQMTQSPSSLSASLGDRVTITCKASEDIYIRLAWYQQKPGKAPRLLISTATSLETGVPSRFSGSGSGTDYTFTISSLQPEDIATYYCQQYWSTPYTFGGGTRLEIK
For B1, the binding was “binds”.
